In article PMC8884909:
Results are given in words; binding and its absence hold for the method and conditions named. In cells and extracts the contact can be indirect. Some binding calls cover weakened binding; strength is not graded here.

The chains behind the UniProt entries cited, without tags or fusion partners. Residues count along the entry.
UniProt Q9P1W8, residues 29-387: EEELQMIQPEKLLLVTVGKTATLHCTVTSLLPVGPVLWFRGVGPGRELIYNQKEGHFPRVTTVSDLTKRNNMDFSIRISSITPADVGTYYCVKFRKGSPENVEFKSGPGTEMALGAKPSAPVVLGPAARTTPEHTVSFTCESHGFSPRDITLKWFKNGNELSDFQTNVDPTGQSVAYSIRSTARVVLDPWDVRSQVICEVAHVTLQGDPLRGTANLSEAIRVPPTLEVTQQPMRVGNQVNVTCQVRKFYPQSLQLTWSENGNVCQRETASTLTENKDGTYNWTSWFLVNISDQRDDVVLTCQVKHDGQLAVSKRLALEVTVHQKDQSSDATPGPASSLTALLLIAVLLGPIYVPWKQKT

Target: T1, MST1 (macrophage stimulating 1; also known as serine/threonine kinase 4, STK4) (human (endogenous in A549 and H1975)) (UniProt Q13043)
T1 sequence: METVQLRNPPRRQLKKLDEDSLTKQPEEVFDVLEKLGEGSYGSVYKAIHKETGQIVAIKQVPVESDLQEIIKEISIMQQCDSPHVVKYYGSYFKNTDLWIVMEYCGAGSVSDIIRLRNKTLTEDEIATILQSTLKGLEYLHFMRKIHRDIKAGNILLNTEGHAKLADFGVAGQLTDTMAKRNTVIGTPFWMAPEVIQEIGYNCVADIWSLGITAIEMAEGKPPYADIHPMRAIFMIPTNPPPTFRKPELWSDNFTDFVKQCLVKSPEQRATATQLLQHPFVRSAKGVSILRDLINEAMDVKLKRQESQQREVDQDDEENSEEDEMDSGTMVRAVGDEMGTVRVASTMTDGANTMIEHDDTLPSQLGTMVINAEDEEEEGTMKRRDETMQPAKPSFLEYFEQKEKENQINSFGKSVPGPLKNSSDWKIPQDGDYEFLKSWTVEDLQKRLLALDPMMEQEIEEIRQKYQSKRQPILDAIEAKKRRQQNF
Test: co-IP; endogenous proteins precipitated from A549 and H1975 cell lysates with specific antibodies (anti-SIRPγ, anti-MST1, anti-PP2A), immunoblot

## signal regulatory protein γ (SIRPγ) (from UniProt Q9P1W8 29-387)
  binding: binds
